According to patent US10066004B2 (ARIZONA CANCER THERAPEUTICS, LLC, priority 2010, dated 2018):
Positions of bridges follow the written chain, without caps; N, C: chain ends. Non-standard residues stand in square brackets, D forms with d. Residues, ends and D or L forms follow the SMILES beside them. R8 = C=CCCCCCC[C@@](C)(N)C(=O)O; S5 = C=CCCC[C@](C)(N)C(=O)O

System: Ecyl EGFR peptide
Assay: ITC binding experiments
Details: target at 500 uM

Structure (SMILES): CC[C@H](C)[C@H](NC(=O)[C@H](Cc1c[nH]cn1)NC(=O)[C@H](CCCNC(=N)N)NC(=O)[C@H](CCCNC(=N)N)NC(=O)[C@H](CCCNC(=N)N)NC(=O)[C@H](CCSC)NC(=O)[C@H](Cc1ccccc1)NC(=O)[C@H](C)NC(=O)[C@H](CCCNC(=N)N)NC(=O)[C@H](C)NC(=O)[C@H](CCC(N)=O)NC(=O)[C@H](CCCNC(=N)N)NC(=O)[C@H](C)NC(=O)[C@H](C)NC(=O)[C@H](C)NC(=O)[C@H](CCCNC(=N)N)NC(=O)[C@H](C)NC(=O)[C@@H](N)Cc1ccc(O)cc1)C(=O)N[C@]1(C)CCCCCCC=CCCC[C@@](C)(C(=O)N[C@@H](CC(C)C)C(=O)N[C@@H](CC(C)C)C(=O)N[C@@H](CCC(N)=O)C(=O)N[C@@H](CCC(=O)O)C(=O)N[C@@H](CCCNC(=N)N)C(=O)N[C@@H](CCC(=O)O)C(=O)O)NC(=O)[C@H](CCCNC(=N)N)NC(=O)[C@H](CC(C)C)NC(=O)[C@H]([C@@H](C)O)NC(=O)[C@H](CCCNC(=N)N)NC(=O)[C@H](CCCCN)NC(=O)[C@H](CCCNC(=N)N)NC1=O [SAH-EJ1] (H-YARAAARQARAFMRRRHI[R8]RKRTLR[S5]LLQERE-OH; staple 19-26; N-terminus and C-terminus assumed)
- n (ITC stoichiometry) (peptide at 100 uM): 0.523
- n (ITC stoichiometry) (peptide at 150 uM): 0.437
